Reference: PubChem BioAssay AID652259 (Drosophila RNAi Screening Center, 2013)

Screen: 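Knock-downs that push a Wingless-driven reporter up or down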 (primary screen)
System: Drosophila clone 8 imaginal disc epithelial cells
Reagent: long dsRNA against Drosophila genes
Conditions: pathway stimulated by co-transfected Wingless expression plasmid
Read-out: 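Firefly luciferase from a tcf-site Wingless reporter, measured alongside co-transfected Renilla luciferase that tracks transfection; pathway stimulated by a Wingless plasmid; the firefly-to-Renilla ratio is not deposited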
Direction: firefly reporter light: higher = more Wg reporter light, before normalisation; Renilla control light: higher = more transfected or surviving cells
Active means: 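a knock-down is a candidate when at least two out of four statistical tests show it departing from its plate mean; one test alone signals a weak candidate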
Meaning of the calls: active = candidate regulator (raises or lowers reporter); inactive = not a candidate
In all, the deposit lists about 22,000 reagents; shown is an unselected part of those that have a named target and a result. In the full data, 233 (1.1%) were called active. 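Light values are raw, unnormalised plate reads; the ratio scores behind the reporter calls were not deposited.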 A plus sign joins genes that one reagent is predicted to hit. The record does not give: the amount of reagent, the time to read-out, the dose of the treatment.

Target gene | DRSC id | firefly reporter light, replicate 1 | firefly reporter light, replicate 2 | Renilla control light, replicate 1 | Renilla control light, replicate 2 | outcome
Ir76b (GeneID 40198) | DRSC10831 | 16316 | – | 4904 | – | inactive
slim (GeneID 37121) | DRSC06921 | 17181 | – | 3962 | – | inactive
DEF8 (GeneID 39381) | DRSC09840 | 3590 | – | 1383 | – | inactive
SCOT (GeneID 38261) | DRSC08186 | 14256 | – | 3994 | – | inactive
CG11563 (GeneID 43735) | DRSC14327 | 21932 | – | 15507 | – | inactive
lncRNA:CR42862 + CG33229 | DRSC08497 | 16747 | – | 5315 | – | inactive
TpnC73F (GeneID 39916) | DRSC11307 | 6946 | – | 2613 | – | inactive
Lcp65Ag3 (GeneID 59159) | DRSC10345 | 1430 | 10599 | 1277 | 4555 | inactive
CG6961 + CG18259 | DRSC19799 | 19107 | – | 11098 | – | inactive
CG6961 + CG18259 | DRSC20019 | 2898 | 6024 | 1192 | 2394 | inactive
pzg (GeneID 40351) | DRSC11848 | 5076 | – | 556 | – | inactive
CG13053 (GeneID 50274) | DRSC09934 | 5797 | – | 3056 | – | inactive
CG3842 (GeneID 31576) | DRSC18326 | 25921 | – | 12130 | – | inactive
CG12538 (GeneID 41658) | DRSC14527 | 14058 | – | 1952 | – | inactive
CG42671 (GeneID 39268) | DRSC09093 | 4711 | – | 752 | – | inactive
CG42671 (GeneID 39268) | DRSC10321 | 8608 | – | 2726 | – | inactive

Ordered by “firefly reporter light, replicate 1” (high to low): some entries from above.
Target gene | DRSC id | firefly reporter light, replicate 1 | firefly reporter light, replicate 2 | Renilla control light, replicate 1 | Renilla control light, replicate 2 | outcome
CG3842 (GeneID 31576) | DRSC18326 | 25921 | – | 12130 | – | inactive
CG13053 (GeneID 50274) | DRSC09934 | 5797 | – | 3056 | – | inactive

The results go on:
Target gene | DRSC id | firefly reporter light, replicate 1 | firefly reporter light, replicate 2 | Renilla control light, replicate 1 | Renilla control light, replicate 2 | outcome
CG15152 (GeneID 35082) | DRSC02453 | 1473 | 6299 | 864 | 2418 | inactive
ChT (GeneID 42245) | DRSC16296 | 1785 | 5049 | 1091 | 743 | inactive
CycB (GeneID 37618) | DRSC04605 | 5783 | – | 1626 | – | inactive
CG34034 (GeneID 3885584) | DRSC13506 | 4061 | – | 2033 | – | inactive
CG31103 (GeneID 43030) | DRSC22324 | 3.10e5 | 3.10e5 | 1.48e5 | 1.50e5 | inactive
e(y)2b (GeneID 50143) | DRSC12556 | 22181 | – | 5596 | – | inactive
CG4998 (GeneID 39808) | DRSC10466 | 6752 | – | 2441 | – | inactive
CG4998 (GeneID 39808) | DRSC22911 | 5.68e5 | 5.26e5 | 2.47e5 | 1.37e5 | inactive
jagn (GeneID 40714) | DRSC12152 | 14242 | – | 3848 | – | inactive
pippin (GeneID 37770) | DRSC04489 | 17675 | – | 5222 | – | inactive
CG42516 + Pbp49 | DRSC06073 | 5584 | – | 1451 | – | inactive
CG13126 (GeneID 34323) | DRSC02222 | 2272 | 6025 | 897 | 3052 | inactive
MED7 (GeneID 41288) | DRSC16059 | 11380 | – | 2325 | – | inactive
